These are yes or no findings as the source states them, for the method shown. In cells and extracts the contact can be indirect. Some results given as binding are weak or reduced against the parent protein; the word gives no strength. For some assays here: Sequences can lack the tags named with a protein.
Assays:
Flag-Rap2A = target: T1, Flag-Rap2A (UniProt P10114); assay: co-IP; anti-Flag immunoprecipitation (FlagIPT-1 kit, Sigma-Aldrich) from cleared RIPA lysates of HEK-293 cells (stable Flag-PAT1 line, or transiently expressing Flag-RagD or Flag-Rap2A), steady state conditions; Western blot of the precipitates
T1 sequence: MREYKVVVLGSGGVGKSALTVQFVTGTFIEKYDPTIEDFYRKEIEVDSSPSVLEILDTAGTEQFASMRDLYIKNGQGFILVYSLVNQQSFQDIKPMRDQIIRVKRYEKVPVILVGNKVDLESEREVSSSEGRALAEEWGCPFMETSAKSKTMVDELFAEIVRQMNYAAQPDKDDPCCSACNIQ

The chains behind the UniProt entries cited, without tags or fusion partners.
UniProt Q7Z2H8: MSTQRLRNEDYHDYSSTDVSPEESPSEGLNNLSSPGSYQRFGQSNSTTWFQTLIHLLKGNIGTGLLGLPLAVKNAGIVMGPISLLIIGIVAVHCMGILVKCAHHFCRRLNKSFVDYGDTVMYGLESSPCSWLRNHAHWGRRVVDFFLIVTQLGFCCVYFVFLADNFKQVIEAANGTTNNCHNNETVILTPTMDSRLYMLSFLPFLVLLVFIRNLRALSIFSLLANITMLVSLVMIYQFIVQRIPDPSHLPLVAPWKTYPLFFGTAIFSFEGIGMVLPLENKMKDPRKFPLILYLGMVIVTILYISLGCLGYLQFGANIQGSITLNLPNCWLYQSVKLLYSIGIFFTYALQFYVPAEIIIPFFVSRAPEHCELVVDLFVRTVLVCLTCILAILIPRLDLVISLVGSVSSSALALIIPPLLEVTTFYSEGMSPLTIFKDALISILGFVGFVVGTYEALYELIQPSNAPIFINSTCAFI
UniProt Q9HB90: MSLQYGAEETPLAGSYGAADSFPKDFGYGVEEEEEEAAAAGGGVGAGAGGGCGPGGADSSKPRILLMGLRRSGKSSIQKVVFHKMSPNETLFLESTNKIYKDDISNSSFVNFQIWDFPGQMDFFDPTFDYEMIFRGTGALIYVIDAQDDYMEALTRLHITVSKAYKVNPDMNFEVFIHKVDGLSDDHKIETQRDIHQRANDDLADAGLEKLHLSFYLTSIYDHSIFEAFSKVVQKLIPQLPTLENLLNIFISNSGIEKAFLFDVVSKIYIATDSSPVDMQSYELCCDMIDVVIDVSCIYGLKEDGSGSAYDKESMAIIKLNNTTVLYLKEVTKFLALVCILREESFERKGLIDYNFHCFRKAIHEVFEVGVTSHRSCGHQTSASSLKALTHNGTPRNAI

[1] = target: Flag-tagged Proton-assisted Amino acid Transporter 1 (PAT1)/SLC36A1 (human) (UniProt Q7Z2H8); assay: as above

## Proton-assisted Amino acid Transporter 1 (PAT1)/SLC36A1 (from UniProt Q7Z2H8 1-476)
Flag-Rap2A
  binding: no binding

## RagC (from UniProt Q9HB90 1-399) (other; other documents disagree on this pair)
[1]
  binding: binds

Reference: article PMC3344915
